This passage reports binding results from article PMC5096713.

No constants are given. Whether binding was seen depends on the method and setting. Binding seen in cells or lysates may run through a third protein. A result given as binding can be weak or reduced; the word gives no strength. Where a sequence is shown, tags or fusion partners need not be part of it.

Experiment [1] concerns the target T1, RFP-tagged wild-type Rab5 (Rab5-RFP) (Drosophila) (UniProt Q9V3I2).
T1 sequence: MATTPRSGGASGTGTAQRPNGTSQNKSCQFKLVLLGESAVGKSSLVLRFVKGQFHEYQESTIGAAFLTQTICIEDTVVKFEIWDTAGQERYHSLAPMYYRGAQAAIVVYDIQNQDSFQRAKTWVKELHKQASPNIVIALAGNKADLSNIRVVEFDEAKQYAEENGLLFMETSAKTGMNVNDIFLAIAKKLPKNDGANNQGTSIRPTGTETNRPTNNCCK
Nature of the experiment: co-IP; Drosophila S2 cells co-transfected; cell lysates immunoprecipitated by anti-RFP; Western blot.

In experiment [2] the target is GFP-tagged Thickveins (Tkv-GFP) (Drosophila). Nature of the experiment: co-IP; Drosophila S2 cells co-transfected, lysed three days later in IP lysis buffer (25 mM Tris-HCl pH 7.4, 150 mM NaCl, 1% NP-40, 1 mM EDTA, 5% glycerol); immunoprecipitated by anti-GFP (GFP-Nanotrap A Kit); Western blot.
Experiment [3] deals with GFP-tagged constitutively active form of Tkv (caTkv-GFP) (Drosophila). Described as above.

Consider “MYC-tagged LRR domain of Scrib (LRR-MYC) (Drosophila) (domain or fragment)”, for which, in experiment [1], the binding result was “binds”.

As to “GFP-tagged Thickveins (Tkv-GFP) (Drosophila) (receptor)”, in experiment [1], the binding result was “binds”.

As to “GFP-tagged constitutively active form of Tkv (caTkv-GFP) (Drosophila) (receptor)”, the binding result in experiment [1] was “binds”.

B1: RFP-tagged wild-type Rab5 (Rab5-RFP) (protein, UniProt Q9V3I2 1-219)
chain: MATTPRSGGASGTGTAQRPNGTSQNKSCQFKLVLLGESAVGKSSLVLRFVKGQFHEYQESTIGAAFLTQTICIEDTVVKFEIWDTAGQERYHSLAPMYYRGAQAAIVVYDIQNQDSFQRAKTWVKELHKQASPNIVIALAGNKADLSNIRVVEFDEAKQYAEENGLLFMETSAKTGMNVNDIFLAIAKKLPKNDGANNQGTSIRPTGTETNRPTNNCCK
Regarding B1, the binding entry in experiment [2] and in experiment [3] was “binds” in each case.

B2: RFP-tagged dominant negative Rab5 (S43N) (protein, UniProt Q9V3I2 1-219)
chain: MATTPRSGGASGTGTAQRPNGTSQNKSCQFKLVLLGESAVGKNSLVLRFVKGQFHEYQESTIGAAFLTQTICIEDTVVKFEIWDTAGQERYHSLAPMYYRGAQAAIVVYDIQNQDSFQRAKTWVKELHKQASPNIVIALAGNKADLSNIRVVEFDEAKQYAEENGLLFMETSAKTGMNVNDIFLAIAKKLPKNDGANNQGTSIRPTGTETNRPTNNCCK
With B2, in experiment [2], the binding result is on record as “binds”.

B3: RFP-tagged constitutively active Rab5 (Q88L) (protein, UniProt Q9V3I2 1-219)
chain: MATTPRSGGASGTGTAQRPNGTSQNKSCQFKLVLLGESAVGKSSLVLRFVKGQFHEYQESTIGAAFLTQTICIEDTVVKFEIWDTAGLERYHSLAPMYYRGAQAAIVVYDIQNQDSFQRAKTWVKELHKQASPNIVIALAGNKADLSNIRVVEFDEAKQYAEENGLLFMETSAKTGMNVNDIFLAIAKKLPKNDGANNQGTSIRPTGTETNRPTNNCCK
As to B3, the binding result in experiment [2] is recorded as “binds”.
